In publication PMC11656939:
These are yes or no findings as the source states them, for the method shown. In cells and extracts the contact can be indirect. A yes stands for co-enrichment or nearness to the bait. Other partners may have been found. A no says only that the protein was not detected with the bait. Where a sequence is shown, tags or fusion partners need not be part of it.

Chains of the proteins cited; added tags and fusions are not shown.
UniProt P60520: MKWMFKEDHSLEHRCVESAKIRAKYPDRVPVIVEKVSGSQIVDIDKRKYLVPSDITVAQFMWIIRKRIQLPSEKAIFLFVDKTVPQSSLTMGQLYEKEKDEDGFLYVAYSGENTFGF
UniProt P31749: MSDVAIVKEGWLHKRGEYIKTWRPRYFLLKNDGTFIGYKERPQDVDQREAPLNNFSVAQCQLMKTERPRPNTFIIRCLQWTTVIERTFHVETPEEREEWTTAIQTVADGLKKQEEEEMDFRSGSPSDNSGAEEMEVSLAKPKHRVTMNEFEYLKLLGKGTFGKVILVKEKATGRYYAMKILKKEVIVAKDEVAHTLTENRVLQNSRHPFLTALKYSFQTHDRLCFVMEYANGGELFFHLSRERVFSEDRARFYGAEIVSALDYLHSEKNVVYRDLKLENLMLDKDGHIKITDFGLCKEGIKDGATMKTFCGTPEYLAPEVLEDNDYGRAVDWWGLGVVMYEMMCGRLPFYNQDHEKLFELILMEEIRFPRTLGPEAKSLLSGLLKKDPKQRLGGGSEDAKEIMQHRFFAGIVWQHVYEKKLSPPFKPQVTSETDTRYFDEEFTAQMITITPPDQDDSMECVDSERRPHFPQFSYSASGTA
UniProt O95292: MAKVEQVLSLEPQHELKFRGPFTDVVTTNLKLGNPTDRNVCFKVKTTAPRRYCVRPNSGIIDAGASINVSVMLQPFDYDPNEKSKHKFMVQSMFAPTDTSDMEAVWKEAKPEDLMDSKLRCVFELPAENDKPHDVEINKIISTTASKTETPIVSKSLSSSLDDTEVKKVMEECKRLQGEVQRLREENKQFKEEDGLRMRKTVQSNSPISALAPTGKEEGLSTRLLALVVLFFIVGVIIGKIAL
UniProt Q99832: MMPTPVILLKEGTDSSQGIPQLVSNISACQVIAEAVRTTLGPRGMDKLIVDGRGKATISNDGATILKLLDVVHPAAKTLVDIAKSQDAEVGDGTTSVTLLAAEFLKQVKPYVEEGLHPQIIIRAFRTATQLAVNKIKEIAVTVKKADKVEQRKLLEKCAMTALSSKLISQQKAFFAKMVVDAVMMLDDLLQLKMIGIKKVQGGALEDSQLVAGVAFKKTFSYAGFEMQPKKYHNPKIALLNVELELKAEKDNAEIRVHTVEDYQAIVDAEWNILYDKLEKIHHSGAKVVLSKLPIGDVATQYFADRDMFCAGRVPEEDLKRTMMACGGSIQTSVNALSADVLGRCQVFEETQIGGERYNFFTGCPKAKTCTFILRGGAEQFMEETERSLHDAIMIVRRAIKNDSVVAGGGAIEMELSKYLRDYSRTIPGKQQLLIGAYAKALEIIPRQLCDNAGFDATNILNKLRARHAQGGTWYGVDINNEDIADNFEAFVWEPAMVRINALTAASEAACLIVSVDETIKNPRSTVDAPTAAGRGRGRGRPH

Target: T1, ORP7-mycBirA (UniProt Q9BZF2)
T1 sequence: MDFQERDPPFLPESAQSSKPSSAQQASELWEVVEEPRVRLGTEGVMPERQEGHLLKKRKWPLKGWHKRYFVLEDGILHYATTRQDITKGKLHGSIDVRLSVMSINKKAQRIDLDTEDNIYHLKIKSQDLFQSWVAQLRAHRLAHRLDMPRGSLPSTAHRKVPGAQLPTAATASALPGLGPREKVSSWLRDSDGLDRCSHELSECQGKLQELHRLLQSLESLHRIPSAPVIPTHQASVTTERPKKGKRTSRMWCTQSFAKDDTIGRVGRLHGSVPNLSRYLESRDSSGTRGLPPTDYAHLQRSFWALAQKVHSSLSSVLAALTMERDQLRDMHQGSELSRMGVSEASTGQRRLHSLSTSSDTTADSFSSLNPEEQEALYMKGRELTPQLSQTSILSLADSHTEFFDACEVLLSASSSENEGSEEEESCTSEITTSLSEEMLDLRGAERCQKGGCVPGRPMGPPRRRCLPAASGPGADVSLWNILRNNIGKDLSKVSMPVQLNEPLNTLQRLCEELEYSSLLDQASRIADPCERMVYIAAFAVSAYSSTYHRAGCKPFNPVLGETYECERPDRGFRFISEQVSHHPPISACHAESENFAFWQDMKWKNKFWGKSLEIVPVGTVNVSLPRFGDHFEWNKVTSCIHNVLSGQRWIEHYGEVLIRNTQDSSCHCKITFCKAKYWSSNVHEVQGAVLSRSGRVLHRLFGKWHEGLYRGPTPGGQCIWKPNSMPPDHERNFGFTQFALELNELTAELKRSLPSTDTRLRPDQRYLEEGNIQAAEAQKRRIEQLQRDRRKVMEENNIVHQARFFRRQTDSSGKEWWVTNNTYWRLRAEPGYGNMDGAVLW
Experiment: proximity labelling; ORP7-mycBirA bait in lentivirally transduced HUVECs against mycBirA control cells; three 10-cm plates per sample; captured proteins by LC-MS/MS; filtered with SAINT and CRAPome

Row | Substance | binding
1 | GABA type A receptor-associated protein like 2 (GABARAPL2) (from UniProt P60520 1-117) | no binding
2 | RAC-alpha serine/threonine-protein kinase (AKT1) (from UniProt P31749 1-480) | binds
3 | VAPB (from UniProt O95292 1-243) | no binding
4 | Chaperonin Containing TCP1 subunit 7 (CCT7) (from UniProt Q99832 1-543) | binds
